# Reference: PubChem BioAssay AID540276 (National Center for Advancing Translational Sciences (NCATS), 2011)
# “And” between values parts separate entries of the source, which are not always exact repeats. Equal values may be shown once. The campaign covered roughly 300,000 compounds. About 5,400 (1.8%) were called active. The inconclusive results got no clear call from the source; some entries with a clear call stand among them for comparison. Calls come from the whole dose curve; tested in HEK293 cells. Potencies of inconclusive entries are doubtful fits and often do not repeat.
# Test: qHTS for inhibitors of binding or entry into cells for Marburg Virus
# Details: Marburg virus pseudotyped entry inhibition, cell reporter; activity change, negative = inhibition: at 37.8 µM (top of the series) unless noted
# % is set by controls: 0 for no effect and ±100 for the full control effect; potency is the fitted concentration of half-maximal effect.
SMILES,"activity change, negative = inhibition",Potency
C/C(=N/NC(=O)c1ccc2c(c1)OCO2)c1ccc(NC(=O)c2ccc(F)cc2)cc1,inactive: 16.8% [at 46.1 µM],–
O=C(Nc1ccccc1-c1nc2ccccc2[nH]1)c1sc2ccccc2c1Cl,–,"inconclusive: 0.517 µM [activator, partial curve, poor fit]"
O=c1c2sc3ccccc3c2n(Cc2cccc(C(F)(F)F)c2)c(=O)n1Cc1ccccc1,inactive: -17.3% [at 46.1 µM],–
CCc1ccc2nc(SCC(=O)N(CC)CC)c(C#N)cc2c1,–,"inconclusive: 31.6 µM [inhibitor, single point]"
O=C(O)COc1ccc(/C=N/NC(=O)Cc2ccc(Cl)cc2)cc1,–,"inconclusive: 2.24 µM [activator, full curve, poor fit]"
CC(C)C(=O)NNc1ccccc1,–,"inconclusive: 1.12 µM [activator, single point]"
COC(=O)c1ccc(OC)c(CSc2nnc(-c3ccc(C)cc3)o2)c1,inactive: 13.8% [at 46.1 µM],–
COC(=O)CCC(=O)OC1(C)C(=O)C=C2C=C(C3CC3)N(c3ccc(OC)cc3)C=C2C1=O (centres undefined),–,"inconclusive: 1.19 µM [activator, single point]"
Cc1ccc(C)c(CN2C(=O)C(C)Oc3ccc(C)cc32)c1 (centres undefined),–,"inconclusive: 23.1 µM [inhibitor, single point]"
COc1ccc2cc(C#N)c(SCC(=O)NNC(=O)Cc3ccccc3)nc2c1,–,"inconclusive: 35.5 µM [inhibitor, single point]"
COc1ccc(F)cc1S(=O)(=O)N1CC(C)CC(C)C1 (centres undefined),–,"inconclusive: 2.91 µM [inhibitor, partial curve]"
COc1ccc(S(=O)(=O)N2CCN(C(C)C(=O)Nc3ccc(C(C)C)cc3)CC2)cc1 (centres undefined),–,"inconclusive: 35.5 µM [inhibitor, single point]"
CCSc1ncc(Cl)c(C(=O)N(Cc2ccc(N(C)C)cc2)C2CCS(=O)(=O)C2)n1 (centres undefined),inactive: -13.8%,–
COc1ccc2oc(=O)c(-c3nc(C)cs3)cc2c1,–,inactive
Cc1ncoc1C(=O)N1CCCC(CCC(=O)NCc2ccccc2F)C1 (centres undefined),–,"inconclusive: 35.5 µM [inhibitor, single point]"
COc1cc(C(=O)NCCc2ccc(F)cc2)ccc1OCC(=O)N1CCOCC1,inactive: -0.996% [at 46.1 µM],–
CCOc1ncccc1C(=O)OCc1ccc(Cl)cc1,inactive: -28.7%,–
Cc1cccc(N2CC(C)Cn3c2nc2c3c(=O)n(CC(=O)O)c(=O)n2C)c1 (centres undefined),–,"inconclusive: 10 µM [activator, partial curve, poor fit]"
Cc1c(NC(=O)c2ccc(C(C)(C)C)cc2)cccc1[N+](=O)[O-],inactive: -29.3%,–
O=C(Nc1ccc2nsnc2c1)c1cccs1,–,"inconclusive: 31.6 µM [inhibitor, single point]"
OC(CN1CCCCC1)Cn1c2ccccc2c2cc(Br)ccc21 (centres undefined),–,"inconclusive: 3.98 µM [inhibitor, full curve, poor fit]"
Cc1ccc(CNC(=O)C(=O)NCCC2CCCCN2S(=O)(=O)c2cccs2)cc1 (centres undefined),–,"inconclusive: 5.01 µM [inhibitor, full curve, poor fit]"
Cc1ccc2c(C(=O)CN3CCSCC3)c(C)[nH]c2c1,–,"inconclusive: 3.16 µM [inhibitor, partial curve, poor fit]"

SMILES,"activity change, negative = inhibition",Potency
Cc1cccc(C)c1NC(=O)CN1C(=O)NC(C)(C2CC2)C1=O (centres undefined),–,"inconclusive: 17.8 µM [activator, single point]"
CCOC(=O)c1c(-c2ccc(C)cc2)cn2ccccc12,inactive: 0%,–
CCOC(C(=O)OCCCN(CC)CC)(c1ccccc1)c1ccccc1,–,"inconclusive: 7.94 µM [inhibitor, partial curve, poor fit]"
CC(C)N(Cc1ccccc1)C(=O)CN1C(=O)NC(Cc2ccccc2)(c2ccccc2)C1=O (centres undefined),–,"inconclusive: 14.1 µM [inhibitor, single point]"
Cc1nc(NN)c2c3c(sc2n1)COC(C)(C)C3,–,"inconclusive: 0.708 µM [inhibitor, single point]"
COc1ccc(CNC(=O)CC2C(=O)NCCN2C2Cc3ccccc3C2)cc1 (centres undefined),inactive: 6.32%,–
Cc1ccc(-c2nnc(NCc3ccccc3)c3ccccc23)cc1,inactive: 17%,–
CCn1cc(S(=O)(=O)Nc2cc(C)ccc2F)cn1,inactive: -5.92% [at 46.1 µM],–
CSc1ccccc1C(=O)C1CCCN(Cc2cnn(-c3ccccc3)c2)C1 (centres undefined),–,"inconclusive: 28.2 µM [inhibitor, single point]"
CSc1nc(-c2ccccc2)nn1C(=O)c1ccc(C)cc1,inactive: 5.19%,–
O=C(CSc1nnc(-c2ccccc2)o1)NCC1CCCCC1,inactive: -6.17%,–
Cc1cc2sc3ccccc3c(=O)c2c(C)c1O,–,"inconclusive: 6.31 µM [inhibitor, single point]"
Cc1cc(C)c2c(=O)cc(C(=O)Nc3ccc(S(=O)(=O)N(C)Cc4ccccc4)cc3)oc2c1,–,"inconclusive: 2.51 µM [inhibitor, partial curve, poor fit]"
Cn1ncc(Cl)c1C(=O)N/N=C/c1cc2c(cc1[N+](=O)[O-])OCO2,inactive: -24.6%,–
O=C(NCc1ccncc1)C(=O)N/N=C/c1ccccc1OCc1ccccc1,inactive: 0.297% [at 46.1 µM],–
Cn1c(=O)n(C)c2cc([N+](=O)[O-])c(N3CCN(S(=O)(=O)c4ccccc4)CC3)cc21,–,"inconclusive: 35.5 µM [inhibitor, single point]"
O=C(c1ccc(Cl)cc1)N(c1ccccn1)C1CCCCC1,inactive: 9.37% [at 46.1 µM],–
COc1ccc(NC(=O)Cn2c(C)cc(=O)c3ccccc32)cc1,–,"inconclusive: 7.31 µM [inhibitor, partial curve]"
O=C1S/C(=C/c2ccc(N3CCOCC3)o2)C(=O)N1Cc1c(F)cccc1Cl,–,"inconclusive: 5.8 µM [inhibitor, full curve, poor fit]"
Cc1cc(C)nc(N/N=C/c2ccccc2OCc2ccc(Br)cc2)n1,inactive: -2.03%,–
O=C(/C=C/c1ccccc1Cl)Nc1ccccc1,–,active: 10 µM
O=C(O)CC1C(=O)OCN1C(=O)OCc1ccccc1 (centres undefined),–,"inconclusive: 18.3 µM [activator, partial curve, poor fit]"
CN(C(=O)COC(=O)CNC(=O)c1ccccc1Cl)c1ccccc1,–,"inconclusive: 1 µM [inhibitor, full curve, poor fit]"

SMILES,"activity change, negative = inhibition",Potency
COc1ccc(CNCCc2c[nH]c3ccccc23)c(OC)c1OC,–,"inconclusive: 10 µM [inhibitor, partial curve]"
COc1cc(CCC(=O)Nc2ccc(C)c(S(=O)(=O)N3CCCCCC3)c2)cc(OC)c1OC,–,"inconclusive: 11.2 µM [inhibitor, partial curve, poor fit]"
CCC(C)NC(=O)c1cn(-c2cccc(C)n2)cn1 (centres undefined),–,"inconclusive: 17.8 µM [activator, partial curve, poor fit]"
CCCCCCCCC[n+]1cccc2c3ccccc3ccc21,–,active: 2 µM
COc1cc(/C=C/CN2CCC(CO)(CC3CCCCO3)CC2)ccc1O (centres undefined),–,"inconclusive: 0.562 µM [inhibitor, full curve, poor fit]"
O=C(NC(=S)Nc1ccc(F)cc1)C1CCCCC1,inactive: 24.6% [at 46.1 µM],–
Cc1cc(=O)n2nc(N3CCC(C(=O)NCc4ccccc4)CC3)sc2n1,–,"inconclusive: 1.41 µM [activator, partial curve, poor fit] and inconclusive: 31.6 µM [activator, single point]"
N=c1c(C(=O)NCc2ccc(F)cc2)cc2c(=O)n3ccccc3nc2n1CCCN1CCOCC1,–,"inconclusive: 2.51 µM [inhibitor, partial curve, poor fit]"
Cc1ccc(C(C(=O)NCc2ccc(F)cc2)N(Cc2ccco2)C(=O)c2snc(C(N)=O)c2N)o1 (centres undefined),–,"inconclusive: 11.2 µM [inhibitor, partial curve, poor fit]"
Cc1cccc2sc(N(CCN(C)C)C(=O)c3cc(Cl)sc3Cl)nc12,inactive: 15.5%,–
O=CNC1CCCc2c1[nH]c1ccc(Cl)cc21 (centres undefined),–,"inconclusive: 35.5 µM [inhibitor, single point]"
Cc1ccc(OCCN2CCN(C)CC2)c([N+](=O)[O-])c1,–,"inconclusive: 6.51 µM [activator, single point]"
C/C(=N\N=C(/C)c1cccc(N)c1)c1cccc(N)c1,–,"inconclusive: 6.31 µM [activator, single point]"
COc1ccc(NC(=O)COC(=O)CNC(=O)C2CCCCC2)cc1OC,–,"inconclusive: 35.5 µM [activator, single point]"
CCC(C)n1c(=O)c(C(=O)Nc2ccccc2S(N)(=O)=O)c(O)c2ccccc21 (centres undefined),–,"inconclusive: 35.5 µM [inhibitor, single point]"
Cc1ccc(OCC(=O)N/N=C/C=C/c2ccco2)cc1C,inactive: -27.7%,–
COc1ccc(O[C@H]2C=C[C@@H](c3ccccc3)O[C@@H]2CO/N=C(\C)CCC(=O)OC[C@H]2O[C@H](c3ccccc3)C=C[C@@H]2Oc2ccc(OC)cc2)cc1,inactive: -11.7%,–
Cc1nn(C)cc1CNC(=O)/C=C/c1cnn(C)c1,–,"inconclusive: 0.282 µM [activator, partial curve, poor fit]"
O=C(c1ccc(C(=O)N2CCCc3ccccc32)s1)N1CCCc2ccccc21,–,"inconclusive: 29.1 µM [inhibitor, partial curve, poor fit]"
COc1ccc(/C=C/C2=NN(C)C(=O)CC2)cc1,–,"inconclusive: 10 µM [inhibitor, partial curve]"
Cc1cc2nc(C)n(CCCNC(=O)Nc3cccc4ccccc34)c2cc1C,inactive: -12.7%,–
OCCCNCc1cccc2ccccc12,–,"inconclusive: 0.316 µM [activator, partial curve, poor fit]"
Cc1sc2ncnc(N3CCC(C(=O)NCC(=O)Nc4ccc(F)c(F)c4)CC3)c2c1C,–,"inconclusive: 35.5 µM [inhibitor, single point]"
